Reference: PMC7870876
These are yes or no findings as the source states them, for the method shown. In cells and extracts the contact can be indirect. Some results given as binding are weak or reduced against the parent protein; the word gives no strength. Blank lines part the entries; values can stand above or below the substance they belong to.

Protein sequences, listed by entry. Tags and fused reporters are not part of them.
UniProt Q02563: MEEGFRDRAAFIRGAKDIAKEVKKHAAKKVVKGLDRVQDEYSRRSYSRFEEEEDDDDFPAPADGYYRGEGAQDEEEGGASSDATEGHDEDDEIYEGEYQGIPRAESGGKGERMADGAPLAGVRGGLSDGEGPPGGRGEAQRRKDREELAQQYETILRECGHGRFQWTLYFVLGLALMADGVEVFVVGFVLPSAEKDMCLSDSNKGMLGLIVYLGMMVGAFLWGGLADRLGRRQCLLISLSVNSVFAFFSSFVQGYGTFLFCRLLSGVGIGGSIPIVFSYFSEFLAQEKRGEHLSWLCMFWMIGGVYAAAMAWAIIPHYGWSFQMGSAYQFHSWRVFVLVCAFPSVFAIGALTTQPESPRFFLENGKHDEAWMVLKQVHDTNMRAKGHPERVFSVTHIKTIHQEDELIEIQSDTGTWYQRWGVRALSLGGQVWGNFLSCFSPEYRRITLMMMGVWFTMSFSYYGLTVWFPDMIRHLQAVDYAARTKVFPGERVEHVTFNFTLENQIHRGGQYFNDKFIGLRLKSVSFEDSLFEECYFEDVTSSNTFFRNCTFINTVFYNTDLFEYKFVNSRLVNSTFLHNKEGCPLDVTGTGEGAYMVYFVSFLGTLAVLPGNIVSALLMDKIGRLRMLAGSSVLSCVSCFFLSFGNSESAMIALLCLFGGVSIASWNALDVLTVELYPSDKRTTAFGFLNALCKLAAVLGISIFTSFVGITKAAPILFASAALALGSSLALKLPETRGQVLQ
UniProt P22831: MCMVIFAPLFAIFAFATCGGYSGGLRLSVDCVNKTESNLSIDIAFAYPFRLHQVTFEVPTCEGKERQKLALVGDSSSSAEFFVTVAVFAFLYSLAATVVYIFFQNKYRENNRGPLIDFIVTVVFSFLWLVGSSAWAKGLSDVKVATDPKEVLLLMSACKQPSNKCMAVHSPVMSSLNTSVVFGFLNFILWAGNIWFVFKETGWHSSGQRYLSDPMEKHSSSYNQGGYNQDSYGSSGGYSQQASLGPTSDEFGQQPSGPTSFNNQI
UniProt Q8R2H0: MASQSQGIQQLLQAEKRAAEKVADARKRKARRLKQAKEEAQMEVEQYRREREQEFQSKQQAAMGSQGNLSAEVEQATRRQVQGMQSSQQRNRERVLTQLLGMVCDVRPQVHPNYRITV
UniProt Q6PCU2: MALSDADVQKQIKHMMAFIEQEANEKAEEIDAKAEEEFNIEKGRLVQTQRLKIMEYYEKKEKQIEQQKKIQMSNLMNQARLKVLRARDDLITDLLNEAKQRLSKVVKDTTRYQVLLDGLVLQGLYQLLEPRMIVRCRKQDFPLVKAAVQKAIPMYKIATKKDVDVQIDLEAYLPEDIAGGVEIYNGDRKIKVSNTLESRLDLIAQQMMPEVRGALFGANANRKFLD
UniProt P63045: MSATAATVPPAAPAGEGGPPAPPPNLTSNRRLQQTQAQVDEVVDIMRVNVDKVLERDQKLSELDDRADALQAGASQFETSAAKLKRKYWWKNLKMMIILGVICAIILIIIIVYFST
UniProt P07825: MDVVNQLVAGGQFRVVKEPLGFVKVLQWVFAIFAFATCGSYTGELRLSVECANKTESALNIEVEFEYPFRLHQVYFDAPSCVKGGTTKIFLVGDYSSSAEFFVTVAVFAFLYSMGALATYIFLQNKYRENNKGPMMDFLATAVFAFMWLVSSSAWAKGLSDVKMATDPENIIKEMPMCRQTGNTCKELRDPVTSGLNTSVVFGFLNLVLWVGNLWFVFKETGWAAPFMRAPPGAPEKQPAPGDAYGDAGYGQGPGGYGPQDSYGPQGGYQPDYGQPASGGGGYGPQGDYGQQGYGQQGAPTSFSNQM

Experiments:
[1] = target: SV2A (rat (endogenous in rat brain synaptic vesicles)) (UniProt Q02563); experiment: cross-linking; synaptic vesicles incubated with an excess of soluble ΔN-SNARE complex (about 3 copies per copy of Synaptobrevin-2, 16 h, 4 °C), then BS3 and LC-MS/MS; vesicle proteins and the SNARE complex on the vesicles
[2] = target: SV2A (rat (endogenous in rat brain synaptic vesicles)) (UniProt Q02563); experiment: cross-linking; purified, unstimulated, untreated rat brain synaptic vesicles; 10 mM BS3, 1 h, 25 °C; trypsin, enrichment of cross-linked peptides by peptide SEC, LC-MS/MS, pLink, manual validation; four biological replicates
[3] = target: T1, Synaptogyrin-1 (rat (endogenous in rat brain synaptic vesicles)) (UniProt Q62876); experiment: cross-linking
T1 sequence: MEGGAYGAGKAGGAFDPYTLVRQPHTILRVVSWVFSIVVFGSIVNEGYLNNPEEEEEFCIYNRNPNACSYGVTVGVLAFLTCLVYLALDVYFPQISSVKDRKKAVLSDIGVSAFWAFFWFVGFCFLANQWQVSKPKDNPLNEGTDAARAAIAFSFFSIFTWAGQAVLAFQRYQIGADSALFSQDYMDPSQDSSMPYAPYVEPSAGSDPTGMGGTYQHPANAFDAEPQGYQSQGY

[4] = target: SV2A (rat (endogenous in rat brain synaptic vesicles)) (UniProt Q02563); experiment: cross-linking
[5] = target: T1, Synaptogyrin-1 (rat (endogenous in rat brain synaptic vesicles)); experiment: cross-linking; synaptic vesicles fused with ΔN-SNARE-proteoliposomes (100 nm liposomes), then BS3 and LC-MS/MS; vesicle proteins in the more spacious membrane
[6] = target: T1, Synaptogyrin-1 (rat (endogenous in rat brain synaptic vesicles)); experiment: cross-linking; purified, unstimulated, untreated rat brain synaptic vesicles; 10 mM BS3, 1 h, 25 °C; trypsin, enrichment of cross-linked peptides by peptide SEC, LC-MS/MS, pLink, manual validation; four biological replicates
[7] = target: Synaptoporin (rat (endogenous in rat brain synaptic vesicles)) (UniProt P22831); experiment: as above
[8] = target: V-ATPase subunit G2 (rat (endogenous in rat brain synaptic vesicles)) (UniProt Q8R2H0); experiment: cross-linking
[9] = target: V-ATPase subunit G2 (rat (endogenous in rat brain synaptic vesicles)) (UniProt Q8R2H0); experiment: cross-linking; synaptic vesicles fused with ΔN-SNARE-proteoliposomes (100 nm liposomes), then BS3 and LC-MS/MS; vesicle proteins in the more spacious membrane
[10] = target: V-ATPase subunit G2 (rat (endogenous in rat brain synaptic vesicles)) (UniProt Q8R2H0); experiment: cross-linking; synaptic vesicles incubated with an excess of soluble ΔN-SNARE complex (about 3 copies per copy of Synaptobrevin-2, 16 h, 4 °C), then BS3 and LC-MS/MS; vesicle proteins and the SNARE complex on the vesicles
[11] = target: V-ATPase subunit G2 (rat (endogenous in rat brain synaptic vesicles)) (UniProt Q8R2H0); experiment: cross-linking; purified, unstimulated, untreated rat brain synaptic vesicles; 10 mM BS3, 1 h, 25 °C; trypsin, enrichment of cross-linked peptides by peptide SEC, LC-MS/MS, pLink, manual validation; four biological replicates
[12] = target: V-ATPase subunit E1 (rat (endogenous in rat brain synaptic vesicles)) (UniProt Q6PCU2); experiment: cross-linking
[13] = target: V-ATPase subunit E1 (rat (endogenous in rat brain synaptic vesicles)) (UniProt Q6PCU2); experiment: cross-linking; synaptic vesicles fused with ΔN-SNARE-proteoliposomes (100 nm liposomes), then BS3 and LC-MS/MS; vesicle proteins in the more spacious membrane
[14] = target: V-ATPase subunit E1 (rat (endogenous in rat brain synaptic vesicles)) (UniProt Q6PCU2); experiment: cross-linking; synaptic vesicles incubated with an excess of soluble ΔN-SNARE complex (about 3 copies per copy of Synaptobrevin-2, 16 h, 4 °C), then BS3 and LC-MS/MS; vesicle proteins and the SNARE complex on the vesicles
[15] = target: V-ATPase subunit E1 (rat (endogenous in rat brain synaptic vesicles)) (UniProt Q6PCU2); experiment: cross-linking; purified, unstimulated, untreated rat brain synaptic vesicles; 10 mM BS3, 1 h, 25 °C; trypsin, enrichment of cross-linked peptides by peptide SEC, LC-MS/MS, pLink, manual validation; four biological replicates

binding [1]: binds | binding [2]: binds
Substance: Synaptobrevin-2 (from UniProt P63045 1-116)

binding [3]: binds | binding [4]: binds | binding [5]: binds | binding [1]: binds | binding [6]: binds | binding [7]: binds | binding [2]: binds
Substance: Synaptophysin (from UniProt P07825 1-307)

binding [8]: binds | binding [9]: binds | binding [10]: binds | binding [11]: binds
Substance: V-ATPase subunit E1 (from UniProt Q6PCU2 1-226)

binding [12]: binds | binding [13]: binds | binding [14]: binds | binding [15]: binds
Substance: ‘head’ of the V-ATPase (i.e. subunits A and B2) (from UniProt D4A133 1-647; P62815 1-511) (complex)
